This note sets out measurements from PMC9549148, “Validation of the binding stoichiometry between HCN channels and their neuronal regulator TRIP8b by single molecule measurements” (Frontiers in Physiology, 2022).

The chains behind the UniProt entries cited, without tags or fusion partners. Where a name states a change or a piece, a line headed by the entry shows the natural chain unless it says otherwise.
UniProt Q8C437: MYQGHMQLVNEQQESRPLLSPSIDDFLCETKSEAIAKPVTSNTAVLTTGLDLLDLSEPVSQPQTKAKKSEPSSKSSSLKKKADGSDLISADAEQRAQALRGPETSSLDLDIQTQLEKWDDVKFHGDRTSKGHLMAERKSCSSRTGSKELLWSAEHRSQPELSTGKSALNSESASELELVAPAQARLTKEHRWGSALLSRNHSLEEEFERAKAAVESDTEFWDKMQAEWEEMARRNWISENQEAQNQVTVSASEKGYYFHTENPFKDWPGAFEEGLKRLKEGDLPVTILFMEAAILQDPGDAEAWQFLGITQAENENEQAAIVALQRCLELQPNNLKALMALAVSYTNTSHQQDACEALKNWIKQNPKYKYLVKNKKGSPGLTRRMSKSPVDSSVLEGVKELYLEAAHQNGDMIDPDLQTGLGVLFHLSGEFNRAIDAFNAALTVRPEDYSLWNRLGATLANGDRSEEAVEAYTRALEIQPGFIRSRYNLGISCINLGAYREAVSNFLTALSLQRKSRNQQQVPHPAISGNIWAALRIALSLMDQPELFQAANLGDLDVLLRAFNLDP

In assay [1] the target is T1, rabbit HCN4 carrying an internal deletion (from residues 783 to 1064) (rabbit) (UniProt Q9TV66).
T1 sequence: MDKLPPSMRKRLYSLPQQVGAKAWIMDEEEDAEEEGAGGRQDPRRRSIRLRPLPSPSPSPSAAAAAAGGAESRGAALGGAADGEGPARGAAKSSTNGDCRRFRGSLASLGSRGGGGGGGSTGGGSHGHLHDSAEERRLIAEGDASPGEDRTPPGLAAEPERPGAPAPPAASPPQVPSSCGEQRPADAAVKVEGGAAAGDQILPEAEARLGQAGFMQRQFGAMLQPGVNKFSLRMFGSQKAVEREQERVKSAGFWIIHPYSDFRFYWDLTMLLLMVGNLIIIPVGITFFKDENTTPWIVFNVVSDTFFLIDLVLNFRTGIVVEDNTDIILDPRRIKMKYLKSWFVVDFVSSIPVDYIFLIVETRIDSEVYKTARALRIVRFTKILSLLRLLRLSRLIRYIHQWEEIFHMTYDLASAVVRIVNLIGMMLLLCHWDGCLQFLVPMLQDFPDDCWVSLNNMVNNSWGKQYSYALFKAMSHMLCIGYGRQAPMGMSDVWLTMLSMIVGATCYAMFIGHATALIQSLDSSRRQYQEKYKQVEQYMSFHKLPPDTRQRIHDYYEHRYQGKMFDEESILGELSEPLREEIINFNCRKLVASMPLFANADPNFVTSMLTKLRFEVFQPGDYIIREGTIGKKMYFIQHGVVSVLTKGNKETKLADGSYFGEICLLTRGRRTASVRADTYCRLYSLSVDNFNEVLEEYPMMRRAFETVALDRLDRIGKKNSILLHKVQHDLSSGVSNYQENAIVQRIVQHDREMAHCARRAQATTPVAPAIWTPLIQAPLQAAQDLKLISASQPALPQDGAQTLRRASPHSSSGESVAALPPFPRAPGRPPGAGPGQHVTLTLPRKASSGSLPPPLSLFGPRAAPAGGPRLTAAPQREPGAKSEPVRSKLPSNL
The assay can be described thus: pull-down + SEC; HCN4 and His-EGFP-TRIP8b co-expressed in HEK293-F; membranes solubilised with detergent; affinity purification on Ni2+-NTA by the polyhistidine tag of EGFP-TRIP8b, then Superose 6 increase 10/300 GL in 200 mM NaCl, 20 mM HEPES pH 7.0, 0.002% LMNG-CHS; pooled fractions on SDS-PAGE and immunoblot (anti-HCN4, anti-TRIP8b).

The target of assay [2] is EGFP-tagged TRIP8b (1a), full-length mouse TRIP8b (splice variant 1a4) (mouse) (UniProt Q8C437). Described as above.

These are yes or no findings as the source states them, for the method shown. In cells and extracts the contact can be indirect. Binding can be weak; no strength is given.

“N terminally degraded TRIP8b (mouse) (domain or fragment)”: the binding entry in assay [1] is “binds”.

B1: rabbit HCN4 carrying an internal deletion (from residues 783 to 1064) (natural protein, UniProt Q9TV66 1-1175, looked up)
chain: T1 sequence
notes: the extreme C-terminal SNL tripeptide is preserved; expected MW of the monomer 98.4 kDa; Cloned into the pCI vector; no tag is stated for HCN4; also called HCN4ΔC; modified HCN4 channels; source: HEK293-F, transiently co-transfected with TRIP8b; solubilised in detergent (LMNG-CHS), purified in complex with TRIP8b (Ni2+-NTA, Superose 6 SEC)
Consider B1, for which the binding result in assay [2] is reported as “binds”.
